Assay [1] addresses fibronectin extra domain B (ED-B) (UniProt P02751). The assay can be described thus: phage colony ELISA on biotin ED-B captured on streptavidin, against streptavidin alone.
Assay [2] has as its target vascular endothelial growth factor receptor 1 (VEGFR1) (UniProt P17948). Kind of assay: phage ELISA, recombinant phage displaying the peptide on coated VEGFR1 (VEGFR2, streptavidin, HSA, TNF and VEGF as other coats).
For assay [3] the target is unchanged. Kind of assay: phage ELISA: phage displaying the peptide on wells coated with 5 µg/ml protein, anti-M13-HRP, absorbance at 450 nm. For orientation: An ELISA detects its analyte on a solid surface through an enzyme-linked reagent.
The target of assay [4] is fibronectin extra domain B (ED-B) (UniProt P02751). The assay can be described thus: SPR (Biacore), peptide at 250 nM per the legend, biotin-EDB on a streptavidin SA chip.
Assay [5] has as its target streptavidin (UniProt P22629). The assay can be described thus: phage ELISA, recombinant phage displaying the peptide on coated streptavidin (BSA, ovalbumin and VEGF as other coats).
Assay [6] deals with streptavidin (UniProt P22629). The assay can be described thus: phage ELISA: phage displaying the peptide on wells coated with 5 µg/ml protein, anti-M13-HRP, absorbance at 450 nm.

Amino acid sequences for entries named in this document (tags omitted). Residues count along the entry.
UniProt P02751, residues 1266-1356: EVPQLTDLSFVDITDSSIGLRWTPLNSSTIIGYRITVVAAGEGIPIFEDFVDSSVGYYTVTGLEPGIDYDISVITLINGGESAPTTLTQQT
UniProt P17948, residues 27-756: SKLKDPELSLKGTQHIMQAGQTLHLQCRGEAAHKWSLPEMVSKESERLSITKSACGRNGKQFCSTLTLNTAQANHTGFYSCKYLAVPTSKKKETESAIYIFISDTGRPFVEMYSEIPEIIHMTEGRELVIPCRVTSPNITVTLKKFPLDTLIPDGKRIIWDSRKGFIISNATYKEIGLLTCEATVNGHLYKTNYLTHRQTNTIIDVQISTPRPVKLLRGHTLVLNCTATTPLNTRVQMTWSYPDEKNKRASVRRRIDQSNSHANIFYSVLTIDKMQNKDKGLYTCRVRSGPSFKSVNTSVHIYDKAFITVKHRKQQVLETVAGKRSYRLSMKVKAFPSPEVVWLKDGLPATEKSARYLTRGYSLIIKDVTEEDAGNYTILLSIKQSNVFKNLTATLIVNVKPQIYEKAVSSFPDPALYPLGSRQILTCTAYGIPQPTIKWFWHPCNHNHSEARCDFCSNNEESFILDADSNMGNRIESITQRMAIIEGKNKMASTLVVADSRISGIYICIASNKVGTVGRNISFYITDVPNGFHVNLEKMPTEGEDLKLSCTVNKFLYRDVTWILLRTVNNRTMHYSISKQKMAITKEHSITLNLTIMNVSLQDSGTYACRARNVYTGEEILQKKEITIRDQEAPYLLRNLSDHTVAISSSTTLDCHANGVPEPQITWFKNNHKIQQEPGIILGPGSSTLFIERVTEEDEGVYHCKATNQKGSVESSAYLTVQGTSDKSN

The results in this text go back to patent US20150330991A1, “METHOD FOR IMPROVING TARGET AFFINITY OF PEPTIDE” (GWANGJU INSTITUTE OF SCIENCE AND TECHNOLOGY, priority 2012, published 2015).

No constants are given. Whether binding was seen depends on the method and setting. Some entries that bind do so weakly or less than the wild type.

Regarding ADGRVRGSWTWENGKWTWKGIIRLEQ [peptide 2 (…)], in assay [1], the binding result was “binds”.

As for WGGPVRGSWTWENGKWTWKGIIRLEQ [peptide 1 (…)], the binding entry in assay [1] is “binds”.

For GNQWFIGGGSWTWENGKWTWKGQQAIQP [VEGFR1_opti3], the binding entry in assay [2] and in assay [3] was “binds” in each case.

Consider CSSPIQGSWTWENGKWTWKGIIRLEQ [peptide 3 (…)], for which the binding entry in assay [4] and in assay [1] was “binds” in each case.

Turning to WSHPQFEKGGGSWTWENGKWTWKGAHPQVR [Strep_opti1], the binding result in assay [5] and in assay [6] was “binds” in each case.

Regarding GNQWFIGGGSWTWENGKWTWKGRIPKNR [VEGFR1_opti1], the binding entry in assay [2] and in assay [3] was “binds” throughout.

On to GNQWFIGGGSWTWENGKWTWKGKLQNPM [VEGFR1_opti2], for which the binding result in assay [2] and in assay [3] was “binds” throughout.

As for WSHPQFEKGGGSWTWENGKWTWKGTLIHPM [Strep_opti2], the binding entry in assay [5] and in assay [6] was “binds” in each case.
